Experimental data from PubChem BioAssay AID1259354 (Paczesny and Yang Labs, IUPUI and University of Michigan, 2018).
Among all 78,000 compounds or so, about 1,800 (2.3%) were called active. The shares of active, inactive and inconclusive entries below differ from those in the screen. Rule as the data show it: active = inhibition above about 30%; inconclusive = mostly about 10% to 28%; inactive = weaker than that.

Chains of the proteins cited; added tags and fusions are not shown. Lines headed by an entry give the natural chain unless they say otherwise; changes in a name come on top.
UniProt Q01638: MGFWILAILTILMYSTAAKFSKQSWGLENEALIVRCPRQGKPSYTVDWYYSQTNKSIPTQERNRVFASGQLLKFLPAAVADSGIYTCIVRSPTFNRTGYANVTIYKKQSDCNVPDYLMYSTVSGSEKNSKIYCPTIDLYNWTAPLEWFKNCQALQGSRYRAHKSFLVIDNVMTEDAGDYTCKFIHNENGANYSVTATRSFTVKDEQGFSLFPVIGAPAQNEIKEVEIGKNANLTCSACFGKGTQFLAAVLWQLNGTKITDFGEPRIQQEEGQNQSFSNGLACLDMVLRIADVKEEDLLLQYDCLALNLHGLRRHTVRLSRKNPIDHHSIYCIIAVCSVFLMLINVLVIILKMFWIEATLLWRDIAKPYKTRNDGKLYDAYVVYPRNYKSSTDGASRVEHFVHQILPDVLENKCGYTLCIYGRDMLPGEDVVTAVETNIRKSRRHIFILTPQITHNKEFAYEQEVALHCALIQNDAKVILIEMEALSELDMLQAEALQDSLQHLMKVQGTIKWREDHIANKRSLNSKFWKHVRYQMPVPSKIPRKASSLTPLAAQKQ

Molecular target: Interleukin-1 receptor-like 1 (Homo sapiens) (UniProt Q01638)
Experiment: blocks human ST2 binding to IL-33, primary screen, biochemical, AlphaLISA (AID 1259354)
Settings: AlphaLISA ST2-Fc/biotin-IL-33 interaction, 1 h; at 17 µM, active compounds read high

SMILES | inhibition
Cc1nc2cc(-c3ccccc3)nn2c(C)c1CCC(=O)NC1CCCC1 | inactive
CCCCOc1ccc(S(=O)(=O)N2CCSC2c2ccccc2)cc1 (configuration not stated) | inconclusive: 21%
N#C/C(=C\c1cccc(F)c1)c1nc2ccccc2[nH]1 | inactive
Cc1ccc(CNC(=O)CCC(=O)Nc2ccc3nc(N4CCOCC4)cc(C)c3c2)o1 | inconclusive: 10%
CCNC(=O)[C@@H]1C[C@H](N)CN1C(=O)CC1=C(c2cccs2)CCC1=O | inconclusive: 17%
Cc1ccc(N2NC(=O)/C(=C\c3ccc(Br)cc3)C2=O)cc1C | inconclusive: 11%
O=C(CN1C(=O)/C(=C/c2ccccc2F)Sc2ccccc21)N1CCOCC1 | inconclusive: 13%
CCc1cccc(NS(=O)(=O)c2ccc3c(c2)C(=O)NC3)c1 | inconclusive: 16%
CCCCN(CC)C(=O)c1cc(OC)c(OC)cc1[N+](=O)[O-] | inactive
CC1(C)CC(=O)c2c(nc3ccccc3c2NCCO)C1 | inactive
Cc1c(Cc2ccccc2)[nH]c2ccccc12 | inconclusive: 21%
COc1cc(N2CCC(Cn3cc(CO)nn3)CC2)ncn1 | active: 65%
CCCn1c(CNc2ccc(Br)cc2)nc2ccccc21 | inconclusive: 16%
O=C(CSc1c[nH]c2ccccc12)N1N=C(c2cccs2)CC1c1ccc(F)cc1 (configuration not stated) | inconclusive: 18%
O=C1CSC(c2cccnc2)N1c1ccc(Cl)c(Cl)c1 (configuration not stated) | inactive
Cc1cccc(C(=O)N2CCCC3(C=Cc4ccccc4O3)CC2)n1 (configuration not stated) | inconclusive: 19%
CCn1nc(C(=O)N2CCCC(O)(CO)C2)cc1C (configuration not stated) | inconclusive: 22%
CC(C)Nc1nc(-c2ccccc2)nc2ccccc12 | inconclusive: 12%
COC(=O)COc1cc(C)cc2oc(=O)cc(-c3ccccc3)c12 | inconclusive: 13%
Cc1nnc(SCCCn2cc(-c3cccc(O)c3)nn2)s1 | inactive
COc1ccccc1C(=O)Nc1cccc(NC(=O)C2[C@@H]3[C@H]4CC[C@H](C4)[C@H]23)c1 (some centres not stated) | inactive
Cc1ccc2nc(COc3cccc(NC(=O)c4ccc(Br)cc4)c3)cc(=O)n2c1 | inconclusive: 14%
Cc1ccc2nc(-c3ccco3)c(Nc3ccc4c(c3)OCO4)n2c1 | inactive
Cc1cc(Cl)ccc1N1C(=O)C(N2C(=O)c3ccc([N+](=O)[O-])cc3C2=O)C1c1cccs1 (configuration not stated) | active: 39%
CC(C)(C)n1nc2c(c1NC(=O)c1ccccc1Br)CSC2 | inconclusive: 14%
CCOc1cc(C)c(/C=C2\SC(=O)N(CC(=O)N3CCOCC3)C2=O)cc1C(C)C | inconclusive: 23%
C/C=C/Cn1c(SCC(O)CO)nc2c1c(=O)[nH]c(=O)n2C (configuration not stated) | inconclusive: 11%

Structural class, those above with four or more nitrogen atoms
SMILES | inhibition
Cc1nc2cc(-c3ccccc3)nn2c(C)c1CCC(=O)NC1CCCC1 | inactive
Cc1ccc(CNC(=O)CCC(=O)Nc2ccc3nc(N4CCOCC4)cc(C)c3c2)o1 | inconclusive: 10%
COc1cc(N2CCC(Cn3cc(CO)nn3)CC2)ncn1 | active: 65%
Cc1nnc(SCCCn2cc(-c3cccc(O)c3)nn2)s1 | inactive
C/C=C/Cn1c(SCC(O)CO)nc2c1c(=O)[nH]c(=O)n2C (configuration not stated) | inconclusive: 11%
